Measurements published in paper PMC5725494, “Cell cycle-dependent phosphorylation regulates RECQL4 pathway choice and ubiquitination in DNA double-strand break repair”.

Chains of the proteins cited; added tags and fusions are not shown.
UniProt P50750: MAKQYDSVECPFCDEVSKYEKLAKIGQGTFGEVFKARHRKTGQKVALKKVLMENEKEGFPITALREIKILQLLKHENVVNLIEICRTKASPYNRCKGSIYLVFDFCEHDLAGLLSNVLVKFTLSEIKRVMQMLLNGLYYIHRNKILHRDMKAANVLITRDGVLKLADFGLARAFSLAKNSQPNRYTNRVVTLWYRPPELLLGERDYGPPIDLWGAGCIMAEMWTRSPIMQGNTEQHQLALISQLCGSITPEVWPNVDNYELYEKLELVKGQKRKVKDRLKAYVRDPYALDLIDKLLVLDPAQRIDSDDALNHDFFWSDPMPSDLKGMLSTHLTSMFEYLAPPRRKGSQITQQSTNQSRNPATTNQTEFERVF
UniProt Q13619: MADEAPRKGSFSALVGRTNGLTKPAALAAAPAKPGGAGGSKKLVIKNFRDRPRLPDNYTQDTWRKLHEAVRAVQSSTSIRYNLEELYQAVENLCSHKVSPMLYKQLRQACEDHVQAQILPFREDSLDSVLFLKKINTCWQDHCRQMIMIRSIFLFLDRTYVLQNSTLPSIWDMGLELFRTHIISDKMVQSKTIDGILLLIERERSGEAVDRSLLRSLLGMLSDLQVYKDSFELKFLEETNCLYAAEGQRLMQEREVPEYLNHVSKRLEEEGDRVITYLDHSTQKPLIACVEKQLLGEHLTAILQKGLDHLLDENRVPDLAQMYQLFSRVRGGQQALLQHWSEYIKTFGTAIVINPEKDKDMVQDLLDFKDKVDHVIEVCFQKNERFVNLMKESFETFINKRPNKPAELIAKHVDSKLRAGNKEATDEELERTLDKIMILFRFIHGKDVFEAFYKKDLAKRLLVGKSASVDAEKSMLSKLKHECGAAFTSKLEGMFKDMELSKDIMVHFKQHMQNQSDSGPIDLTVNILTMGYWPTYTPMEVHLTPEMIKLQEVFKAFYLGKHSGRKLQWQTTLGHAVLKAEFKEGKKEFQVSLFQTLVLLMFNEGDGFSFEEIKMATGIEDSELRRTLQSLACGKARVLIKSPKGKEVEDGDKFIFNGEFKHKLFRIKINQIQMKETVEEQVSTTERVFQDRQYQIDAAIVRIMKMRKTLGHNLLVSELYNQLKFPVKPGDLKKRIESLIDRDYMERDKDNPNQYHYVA
UniProt Q16531: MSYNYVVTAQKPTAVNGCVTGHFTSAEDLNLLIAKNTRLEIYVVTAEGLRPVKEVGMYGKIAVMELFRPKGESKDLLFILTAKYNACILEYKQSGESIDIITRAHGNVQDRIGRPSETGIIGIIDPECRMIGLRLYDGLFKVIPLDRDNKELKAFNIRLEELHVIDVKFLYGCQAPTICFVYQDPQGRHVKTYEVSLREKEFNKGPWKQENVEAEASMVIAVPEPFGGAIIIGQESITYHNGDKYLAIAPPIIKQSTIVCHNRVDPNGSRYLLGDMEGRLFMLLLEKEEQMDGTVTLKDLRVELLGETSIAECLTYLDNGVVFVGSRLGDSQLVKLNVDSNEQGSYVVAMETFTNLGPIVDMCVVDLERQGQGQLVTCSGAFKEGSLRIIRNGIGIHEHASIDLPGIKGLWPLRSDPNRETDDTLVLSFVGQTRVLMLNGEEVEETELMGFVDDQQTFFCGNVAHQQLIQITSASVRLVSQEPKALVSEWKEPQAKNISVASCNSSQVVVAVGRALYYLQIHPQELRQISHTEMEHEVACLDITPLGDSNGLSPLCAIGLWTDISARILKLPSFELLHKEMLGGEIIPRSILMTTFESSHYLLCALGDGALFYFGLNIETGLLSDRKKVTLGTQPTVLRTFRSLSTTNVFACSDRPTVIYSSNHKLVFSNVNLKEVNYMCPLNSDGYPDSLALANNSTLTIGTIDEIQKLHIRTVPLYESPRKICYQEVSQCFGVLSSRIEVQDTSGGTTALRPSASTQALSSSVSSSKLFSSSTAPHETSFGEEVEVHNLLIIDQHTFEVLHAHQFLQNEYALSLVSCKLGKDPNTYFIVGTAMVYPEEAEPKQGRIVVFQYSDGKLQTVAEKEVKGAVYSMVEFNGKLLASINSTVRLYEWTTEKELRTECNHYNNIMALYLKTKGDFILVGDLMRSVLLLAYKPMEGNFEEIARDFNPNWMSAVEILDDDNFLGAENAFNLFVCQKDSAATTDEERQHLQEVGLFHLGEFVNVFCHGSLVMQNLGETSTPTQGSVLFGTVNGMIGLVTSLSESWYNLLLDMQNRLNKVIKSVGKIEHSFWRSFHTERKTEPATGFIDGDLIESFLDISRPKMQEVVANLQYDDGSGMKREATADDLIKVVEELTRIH

Molecular target: T1, GFP-tagged RECQL4 (wild type) (human) (UniProt O94761)
T1 sequence: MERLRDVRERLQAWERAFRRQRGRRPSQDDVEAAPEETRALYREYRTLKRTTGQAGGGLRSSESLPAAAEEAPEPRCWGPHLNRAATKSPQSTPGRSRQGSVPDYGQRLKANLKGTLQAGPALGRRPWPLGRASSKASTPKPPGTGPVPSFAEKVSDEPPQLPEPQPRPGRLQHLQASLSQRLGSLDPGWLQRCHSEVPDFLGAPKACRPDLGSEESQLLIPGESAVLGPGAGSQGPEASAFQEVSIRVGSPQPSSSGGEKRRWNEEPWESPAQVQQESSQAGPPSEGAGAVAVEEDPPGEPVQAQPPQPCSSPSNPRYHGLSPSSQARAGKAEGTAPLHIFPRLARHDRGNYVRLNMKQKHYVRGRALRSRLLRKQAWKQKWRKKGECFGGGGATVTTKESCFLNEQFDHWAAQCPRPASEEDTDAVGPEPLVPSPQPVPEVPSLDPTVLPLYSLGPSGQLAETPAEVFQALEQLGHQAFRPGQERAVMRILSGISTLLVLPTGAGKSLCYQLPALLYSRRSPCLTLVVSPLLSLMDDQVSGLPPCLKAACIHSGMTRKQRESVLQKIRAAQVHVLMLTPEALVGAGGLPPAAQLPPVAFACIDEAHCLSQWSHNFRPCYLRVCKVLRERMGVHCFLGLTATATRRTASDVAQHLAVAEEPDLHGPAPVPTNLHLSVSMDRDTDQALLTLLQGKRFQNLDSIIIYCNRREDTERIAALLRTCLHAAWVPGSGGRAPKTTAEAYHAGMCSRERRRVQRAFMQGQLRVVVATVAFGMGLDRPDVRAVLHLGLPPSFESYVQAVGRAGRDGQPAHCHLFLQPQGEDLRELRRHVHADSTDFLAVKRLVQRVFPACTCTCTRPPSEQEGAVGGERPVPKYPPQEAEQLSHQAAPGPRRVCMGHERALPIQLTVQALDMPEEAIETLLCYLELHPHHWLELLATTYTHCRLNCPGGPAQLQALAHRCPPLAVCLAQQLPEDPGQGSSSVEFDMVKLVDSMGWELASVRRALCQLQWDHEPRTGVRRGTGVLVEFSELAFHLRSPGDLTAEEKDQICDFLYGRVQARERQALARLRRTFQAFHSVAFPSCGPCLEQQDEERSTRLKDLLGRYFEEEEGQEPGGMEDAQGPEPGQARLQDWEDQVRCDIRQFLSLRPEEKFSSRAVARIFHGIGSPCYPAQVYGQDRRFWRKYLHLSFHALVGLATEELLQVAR
Assay: affinity purification with mass spectrometry; GFP-TRAP beads on lysate of HEK293T cells expressing GFP or GFP-tagged RECQL4, with Benzonase; proteins eluted, precipitated and analysed by mass spectrometry

Row | binding | Substance
1 | binds | CDK9 (from UniProt P50750 1-372) (enzyme)
2 | binds | CUL4A (from UniProt Q13619 1-759)
3 | binds | DDB1 (from UniProt Q16531 1-1140)

No constants are given. Whether binding was seen depends on the method and setting. Binding seen in cells or lysates may run through a third protein. These calls come from enrichment with a bait or labelling near it, and not all partners need be listed. Where a sequence is shown, tags or fusion partners need not be part of it.
